# Test results as given in PubChem BioAssay (EPA / NIEHS).
# Sequences of proteins named here, by UniProt entry; tags and fusion partners are left off. A change or cut given only in a name is not applied to a line headed by its entry.
# UniProt P49884, whole entry, looked up: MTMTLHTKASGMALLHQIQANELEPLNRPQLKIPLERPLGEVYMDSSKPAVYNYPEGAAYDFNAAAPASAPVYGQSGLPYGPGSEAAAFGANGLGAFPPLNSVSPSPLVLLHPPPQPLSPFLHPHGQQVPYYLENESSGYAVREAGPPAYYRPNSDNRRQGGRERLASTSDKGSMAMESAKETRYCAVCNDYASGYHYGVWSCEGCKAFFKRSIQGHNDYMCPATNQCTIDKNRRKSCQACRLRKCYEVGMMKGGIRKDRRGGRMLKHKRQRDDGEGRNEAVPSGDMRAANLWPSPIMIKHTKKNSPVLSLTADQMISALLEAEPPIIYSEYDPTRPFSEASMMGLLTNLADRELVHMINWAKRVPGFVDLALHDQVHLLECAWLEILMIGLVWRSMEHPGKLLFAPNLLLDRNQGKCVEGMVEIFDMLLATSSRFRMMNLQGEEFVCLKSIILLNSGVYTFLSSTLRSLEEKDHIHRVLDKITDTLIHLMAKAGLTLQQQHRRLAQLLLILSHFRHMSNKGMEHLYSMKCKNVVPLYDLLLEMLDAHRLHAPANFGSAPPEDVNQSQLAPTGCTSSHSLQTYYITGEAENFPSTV
# UniProt P19785, whole entry, looked up: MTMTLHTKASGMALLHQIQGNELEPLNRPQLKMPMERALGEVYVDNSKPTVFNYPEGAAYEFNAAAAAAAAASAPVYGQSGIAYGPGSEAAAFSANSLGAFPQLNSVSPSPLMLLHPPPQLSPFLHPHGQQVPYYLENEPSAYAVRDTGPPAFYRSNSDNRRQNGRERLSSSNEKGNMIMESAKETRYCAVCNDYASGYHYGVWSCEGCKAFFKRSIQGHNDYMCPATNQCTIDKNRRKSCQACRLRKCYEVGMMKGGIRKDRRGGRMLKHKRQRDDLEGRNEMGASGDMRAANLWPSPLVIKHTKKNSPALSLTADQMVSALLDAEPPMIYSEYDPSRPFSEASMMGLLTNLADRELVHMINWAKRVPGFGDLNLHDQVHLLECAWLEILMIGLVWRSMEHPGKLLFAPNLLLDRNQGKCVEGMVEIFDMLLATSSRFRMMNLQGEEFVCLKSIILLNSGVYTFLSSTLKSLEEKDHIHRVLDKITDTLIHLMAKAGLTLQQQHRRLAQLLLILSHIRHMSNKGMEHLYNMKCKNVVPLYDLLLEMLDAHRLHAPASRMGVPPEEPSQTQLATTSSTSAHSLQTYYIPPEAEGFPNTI
# UniProt P04637, whole entry, looked up: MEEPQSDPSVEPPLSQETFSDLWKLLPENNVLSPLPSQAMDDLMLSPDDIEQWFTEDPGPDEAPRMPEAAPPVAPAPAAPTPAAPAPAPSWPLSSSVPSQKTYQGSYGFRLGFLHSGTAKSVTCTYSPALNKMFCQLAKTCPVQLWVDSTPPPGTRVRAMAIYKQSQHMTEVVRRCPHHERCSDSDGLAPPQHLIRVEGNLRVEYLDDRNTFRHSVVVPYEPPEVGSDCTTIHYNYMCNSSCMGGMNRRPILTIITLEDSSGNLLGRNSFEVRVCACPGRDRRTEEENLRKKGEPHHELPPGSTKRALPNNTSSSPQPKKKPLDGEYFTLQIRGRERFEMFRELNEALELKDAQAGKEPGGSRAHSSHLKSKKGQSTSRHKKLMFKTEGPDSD
# UniProt P70536: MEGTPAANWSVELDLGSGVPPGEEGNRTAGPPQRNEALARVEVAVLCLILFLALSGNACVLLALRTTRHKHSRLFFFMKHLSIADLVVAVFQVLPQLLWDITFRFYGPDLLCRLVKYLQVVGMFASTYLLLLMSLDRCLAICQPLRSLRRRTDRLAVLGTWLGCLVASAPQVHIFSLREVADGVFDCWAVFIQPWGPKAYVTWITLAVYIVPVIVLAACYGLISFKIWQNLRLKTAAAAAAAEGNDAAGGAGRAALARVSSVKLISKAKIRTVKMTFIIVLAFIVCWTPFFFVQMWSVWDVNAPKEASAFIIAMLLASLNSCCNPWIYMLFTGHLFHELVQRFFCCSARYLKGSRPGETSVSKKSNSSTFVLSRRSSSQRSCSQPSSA
# UniProt P03372, whole entry, looked up: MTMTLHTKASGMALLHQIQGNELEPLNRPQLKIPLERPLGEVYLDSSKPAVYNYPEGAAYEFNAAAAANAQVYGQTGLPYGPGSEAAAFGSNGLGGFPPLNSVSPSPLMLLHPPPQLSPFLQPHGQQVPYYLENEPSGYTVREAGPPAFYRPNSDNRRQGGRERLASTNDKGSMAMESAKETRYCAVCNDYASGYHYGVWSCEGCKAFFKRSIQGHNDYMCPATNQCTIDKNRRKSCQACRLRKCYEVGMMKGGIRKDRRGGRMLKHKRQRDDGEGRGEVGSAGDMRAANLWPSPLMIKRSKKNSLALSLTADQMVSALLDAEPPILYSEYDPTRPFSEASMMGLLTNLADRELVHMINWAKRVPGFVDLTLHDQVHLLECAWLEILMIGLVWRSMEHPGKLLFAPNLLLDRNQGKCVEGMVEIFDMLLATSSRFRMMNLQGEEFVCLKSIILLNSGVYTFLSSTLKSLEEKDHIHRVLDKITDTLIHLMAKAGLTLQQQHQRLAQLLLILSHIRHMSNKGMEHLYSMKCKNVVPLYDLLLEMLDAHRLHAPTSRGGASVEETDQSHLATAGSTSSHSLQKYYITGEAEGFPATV
# UniProt P08219: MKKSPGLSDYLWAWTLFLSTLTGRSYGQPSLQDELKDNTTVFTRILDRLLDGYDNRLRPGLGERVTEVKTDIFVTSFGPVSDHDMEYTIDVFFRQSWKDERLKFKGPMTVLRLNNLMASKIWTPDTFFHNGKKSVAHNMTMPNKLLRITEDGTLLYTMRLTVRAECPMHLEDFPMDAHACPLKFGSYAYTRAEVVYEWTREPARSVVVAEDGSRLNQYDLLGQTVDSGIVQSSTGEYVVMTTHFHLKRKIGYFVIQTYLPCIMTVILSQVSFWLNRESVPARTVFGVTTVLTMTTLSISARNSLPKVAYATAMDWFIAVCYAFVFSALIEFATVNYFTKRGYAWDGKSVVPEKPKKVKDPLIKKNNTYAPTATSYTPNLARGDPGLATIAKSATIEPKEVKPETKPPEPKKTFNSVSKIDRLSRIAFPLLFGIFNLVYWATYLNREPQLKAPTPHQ
# UniProt P35353: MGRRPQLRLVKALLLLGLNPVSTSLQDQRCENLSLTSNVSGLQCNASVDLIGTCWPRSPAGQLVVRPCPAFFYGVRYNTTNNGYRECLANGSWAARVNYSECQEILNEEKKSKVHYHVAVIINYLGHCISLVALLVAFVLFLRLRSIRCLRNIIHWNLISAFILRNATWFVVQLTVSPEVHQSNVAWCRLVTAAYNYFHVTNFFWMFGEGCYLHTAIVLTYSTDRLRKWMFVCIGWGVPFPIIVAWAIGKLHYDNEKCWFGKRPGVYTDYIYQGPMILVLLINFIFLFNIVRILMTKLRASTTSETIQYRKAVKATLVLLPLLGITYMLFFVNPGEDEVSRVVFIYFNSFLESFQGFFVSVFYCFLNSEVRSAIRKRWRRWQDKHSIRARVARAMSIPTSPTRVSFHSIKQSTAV
# UniProt P20789, whole entry, looked up: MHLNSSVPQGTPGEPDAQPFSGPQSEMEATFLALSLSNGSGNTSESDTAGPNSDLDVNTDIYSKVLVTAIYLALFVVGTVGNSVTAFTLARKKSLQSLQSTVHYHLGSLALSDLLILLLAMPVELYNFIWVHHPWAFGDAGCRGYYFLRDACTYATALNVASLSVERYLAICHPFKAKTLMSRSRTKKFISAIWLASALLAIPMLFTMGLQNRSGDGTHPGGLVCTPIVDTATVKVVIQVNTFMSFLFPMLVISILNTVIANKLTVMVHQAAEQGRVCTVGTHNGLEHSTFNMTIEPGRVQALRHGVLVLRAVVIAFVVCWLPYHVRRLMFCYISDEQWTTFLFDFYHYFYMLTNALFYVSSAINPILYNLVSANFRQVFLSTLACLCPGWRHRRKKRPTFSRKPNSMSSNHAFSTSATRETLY
# Inconclusive results, whose numbers are uncertain, are shown with a selection of clear calls. For some of these results: Potencies beside an inconclusive call are fits to weak or partial responses and may not hold up. Calls of active or inactive are those of the source. Rule for the calls: active = hit-call score of the fitted dose curve at least 0.9, where 1 is the maximum; inconclusive = response in the unintended direction; inactive = score below 0.9.
# Key:
# [1] = target: bovine Estrogen Receptor (ER), ESR1 (gene 407238) (UniProt P49884); assay: NVS_NR_bER: NovaScreen (NVS) Nuclear Receptor Binding Assay for bovine Estrogen Receptor (ER) (AID 2283345);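 note: actives lower the bound radioligand count which means they displace the ER ligand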
# Method in brief: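 Displacement of a radioligand from estrogen receptor in bovine uterine membrane preparations; scintillation signal taken at 18 hours, DMSO as baseline. Single-concentration duplicates (25 uM) preceded concentration-response follow-up of actives.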
# [2] = target: mouse Estrogen Receptor alpha (Era), Esr1 (gene 13982) (UniProt P19785); assay: NVS_NR_mERa: NovaScreen (NVS) Nuclear Receptor Binding Assay for mouse Estrogen Receptor alpha (Era) (AID 2283378);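 note: hit means loss of bound radioligand signal relative to DMSO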
# Method in brief: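 Extracted mouse Era incubated with tritiated or iodinated radioligand plus test chemical, 18 h. Bound fraction separated on filters, counted by scintillation. DMSO = negative control/baseline; duplicate single-point at 25 uM, then concentration-response follow-up.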
# [3] = TOX21_p53_BLA_p2_viability: Viability Assessment in the Tox21 HCT-116 p53 Agonism Beta-lactamase Assay, Phase 2 (AID 2283591);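 note: compound exposure lasted 16 h at 37 °C; actives lower the ATP signal meaning cytotoxicity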
# Method in brief: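 HCT116 p53-bla cells, 4000/well, dosed after 5 h plating (217-fold dilution of DMSO stocks) and incubated 16 h at 37C. Viability taken as cellular ATP by CellTiter-Glo luminescence after 30 min RT; signal loss marks cytotoxicity.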
# [4] = target: Cellular tumor antigen p53 (Homo sapiens) (UniProt P04637); assay: TOX21_p53_BLA_p2_ratio: Tox21 HCT-116 p53 Agonism Beta-lactamase Assay, Ratio, Phase 2 (AID 2283592)
# Method in brief: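 HCT116 p53-bla; 4000 cells/well; 5 h pre-incubation; cpd in DMSO, 217-fold dilution; 16 h 37C/5% CO2; CCF4-AM 2 h RT; Ex 405, Em 460/530 ratio; DMSO = baseline; positive fitting direction.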
# [5] = TOX21_p53_BLA_p3_viability: Viability Assessment in the Tox21 HCT-116 p53 Agonism Beta-lactamase Assay, Phase 3 (AID 2283593);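 note: cells exposed to compound for 16 h before reading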
# Method in brief: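 HCT116 cells, 4000/well, dosed 5 h after plating by pin transfer (217-fold dilution from DMSO stock) and incubated 16 h at 37C, 5% CO2. Viability read as ATP luminescence with CellTiter-Glo after 30 min at room temperature.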
# [6] = target: Cellular tumor antigen p53 (Homo sapiens) (UniProt P04637); assay: TOX21_p53_BLA_p3_ratio: Tox21 HCT-116 p53 Agonism Beta-lactamase Assay, Ratio, Phase 3 (AID 2283596)
# Method in brief: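 HCT116 p53-bla cells (4000/well) given compound in DMSO (217-fold dilution) after 5 h, incubated 16 h at 37C. CCF4-AM substrate 2 h at room temperature; 460/530 nm emission ratio, gain fitted against DMSO.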
# [7] = TOX21_p53_BLA_p4_viability: Viability Assessment in the Tox21 HCT-116 p53 Agonism Beta-lactamase Assay, Phase 4 (AID 2283597);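 note: hits lower the luminescence signal meaning cytotoxicity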
# Method in brief: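 Cells plated, 5 h pre-incubation; DMSO compounds pinned (217-fold dilution); 16 h, 37C/5% CO2; CCF4-AM 2 h RT; CellTiter-Glo 30 min RT; luminescence read.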
# [8] = target: Cellular tumor antigen p53 (Homo sapiens) (UniProt P04637); assay: TOX21_p53_BLA_p5_ratio: Tox21 HCT-116 p53 Agonism Beta-lactamase Assay, Ratio, Phase 5 (AID 2283599)
# Method in brief: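 HCT-116 p53-bla cells (4000/well) plated 5 h, dosed with compound (217-fold DMSO dilution) for 16 h at 37 C; CCF4-AM substrate 2 h at room temperature. Activity is the 460/530 nm emission ratio (405 nm excitation), fitted in gain-of-signal direction versus DMSO.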
# [9] = TOX21_p53_BLA_p5_viability: Viability Assessment in the Tox21 HCT-116 p53 Agonism Beta-lactamase Assay, Phase 5 (AID 2283600)
# Method in brief: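 4000 cells/well; 5 h pre-incubation; DMSO compounds pin-transferred, 217-fold dilution; 16 h, 37C/5% CO2; CCF4-AM 2 h RT; CellTiter-Glo 30 min RT; luminescence.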
# [10] = target: Cellular tumor antigen p53 (Homo sapiens) (UniProt P04637); assay: TOX21_p53_BLA_p4_ratio: Tox21 HCT-116 p53 Agonism Beta-lactamase Assay, Ratio, Phase 4 (AID 2283601)
# Method in brief: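 HCT-116 p53 beta-lactamase reporter cells (4000/well) preincubated 5 h, then compound (217-fold dilution of DMSO stock) for 16 h at 37C. CCF4-AM substrate added 2 h at room temperature; 460/530 nm emission ratio fitted upward versus DMSO.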
# [11] = target: rat Oxytocin Receptor (OXT), Oxtr (gene 25342) (UniProt P70536); assay: NVS_GPCR_rOXT: NovaScreen (NVS) G Protein-Coupled Receptor Assay for rat Oxytocin Receptor (OXT) (AID 2283330)
# Method in brief: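 Radioligand displacement on rat uterine membranes, 1 h incubation, filter-based scintillation counting. Chemicals were screened in duplicate at 25 uM, and those passing threshold were retested in concentration-response up to 50 uM. Loss of binding was fitted versus DMSO.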
# [12] = target: Estrogen receptor (Homo sapiens) (UniProt P03372); assay: NVS_NR_hER: NovaScreen (NVS) Nuclear Receptor Binding Assay for human Estrogen Receptor (ER) (AID 2283348)
# Method in brief: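 Radioligand competitive displacement binding to estrogen receptor from MCF7 extract, cell-free; 18 h after dosing, scintillation read-out. Primary screen in duplicate at 25 uM; actives followed up in concentration series; loss of signal vs DMSO.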
# [13] = target: bovine Gamma-Aminobutyric Acid Type A Receptor BDZ, alpha 1 site (GABARa1), GABRA1 (gene 780973) (UniProt P08219); assay: NVS_LGIC_bGABARa1: NovaScreen (NVS) Ligand-Gated Ion Channel Assay for bovine Gamma-Aminobutyric Acid Type A Receptor BDZ, alpha 1 site (GABARa1) (AID 2283321)
# Method in brief: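 Radioligand competition binding on bovine cortical membranes, 0.75 h, filter-based scintillation counting. Primary single concentration 25 uM in duplicate; actives rerun in concentration-response to 50 uM max. Loss of signal fitted versus DMSO.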
# [14] = system: rat Monoamine Oxidase, MAO-A, Central (MAOAC), gene 29253; assay: NVS_ENZ_rMAOAC: NovaScreen (NVS) Enzymatic Assay for rat Monoamine Oxidase, MAO-A, Central (MAOAC) (AID 2283243);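 note: potency refers to inhibition seen as signal drop below DMSO baseline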
# Method in brief: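 Rat brain tissue extract served as the cell-free enzyme source; activity was measured by radiometric scintillation counting 1.5 hours after compound addition. Loss of signal relative to DMSO baseline indicated inhibition; primary screen at 25 uM in duplicate.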
# [15] = target: rat Corticotropin Releasing Factor Receptor (CRF), Crhr1 (gene 58959) (UniProt P35353); assay: NVS_GPCR_rCRF: NovaScreen (NVS) G Protein-Coupled Receptor Assay for rat Corticotropin Releasing Factor Receptor (CRF) (AID 2283300)
# Method in brief: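 Rat cortical membranes used as receptor source in a radioligand competitive displacement binding assay; scintillation read 2 h after dosing. Primary screen run in duplicate at 25 uM; loss of signal versus DMSO baseline indicates binding.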
# [16] = target: rat Neurotensin Receptor (NTS), Ntsr1 (gene 366274) (UniProt P20789); assay: NVS_GPCR_rNTS: NovaScreen (NVS) G Protein-Coupled Receptor Assay for rat Neurotensin Receptor (NTS) (AID 2283308)
# Method in brief: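 Rat forebrain membranes; radioligand binding with competitive displacement, read by filter-based scintillation counting 1 h after dosing. Primary screen in duplicate at 25 uM; actives (e.g., 30% inhibition) rerun in concentration-response up to 50 uM, loss-of-signal versus DMSO.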
compound,measurement,setting,value
[Cl][Hg][c]1ccccc1,AC50,[1],inconclusive: 25 µM
same,AC50,[2],inconclusive: 12 µM
same,AC50,[3],active: 0.576 µM
same,AC50,[4],active: 0.553 µM
same,AC50,[5],active: 2.88 µM
same,AC50,[6],active: 8.93 µM
same,AC50,[7],active: 0.624 µM
same,AC50,[8],active: 10.9 µM
same,AC50,[9],active: 2.95 µM
same,AC50,[10],active: 0.672 µM
CCCCOCCOCCO,AC50,[11],inconclusive: 0.0873 µM
COC(=O)C(C)N(C(=O)Cc1ccccc1)c1c(C)cccc1C (configuration not stated),AC50,[1],inconclusive: 0.00229 µM
same,outcome,[12],inactive
same,outcome,[2],inactive
same,AC50,[4],inconclusive: 68.1 µM
same,AC50,[5],inconclusive: 14.1 µM
same,AC50,[7],inconclusive: 46.1 µM
same,AC50,[8],inconclusive: 46.1 µM
same,AC50,[9],inconclusive: 46.1 µM
same,AC50,[10],inconclusive: 29.3 µM
CSc1ccc(C(=O)C(C)(C)N2CCOCC2)cc1,AC50,[1],inconclusive: 25 µM
same,outcome,[3],inactive
same,outcome,[5],inactive
same,outcome,[7],inactive
same,AC50,[10],inconclusive: 46.1 µM
C=CC(=O)OCCCCO,outcome,[1],inactive
same,AC50,[2],inconclusive: 25 µM
C#C[C@]1(O)CC[C@H]2[C@@H]3CCC4=CC(=O)CC[C@@H]4[C@H]3CC[C@@]21C,AC50,[13],active: 1.27 µM
c1ccc2[nH]c(-c3cscn3)nc2c1,outcome,[14],inactive
CCC(C)(C)C1CCC(O)CC1 (configuration not stated),outcome,[15],inactive
N#Cc1sc2c(=O)c3ccccc3c(=O)c=2sc1C#N,AC50,[1],active: 9.58 µM
same,AC50,[12],active: 10.3 µM
same,AC50,[2],inconclusive: 4.11 µM
same,AC50,[3],active: 14.9 µM
same,AC50,[4],active: 0.333 µM
same,AC50,[5],active: 25.2 µM
same,AC50,[7],active: 8.76 µM
same,AC50,[8],active: 0.347 µM
same,AC50,[9],active: 7.3 µM
same,AC50,[10],active: 6.18 µM
COc1ccc2cc(S(=O)(=O)N[C@H](CC(=O)N[C@H](Cc3ccc(CN4[C@H](C)CCC[C@@H]4C)cc3)C(=O)N(C)C(C)C)c3ccc4c(c3)OCO4)ccc2c1,outcome,[11],inactive
CCCCCOC(=O)COc1cc(N2C(=O)C3=C(CCCC3)C2=O)c(F)cc1Cl,AC50,[16],inconclusive: 1.26 µM
N#CC(C#N)=NNc1cccc(Cl)c1,AC50,[1],inconclusive: 0.19 µM
same,outcome,[2],inactive
same,AC50,[3],active: 20.8 µM
same,AC50,[4],active: 2.66 µM
same,outcome,[5],inactive
same,AC50,[6],active: 1.24 µM
same,AC50,[7],active: 6.28 µM
same,AC50,[8],active: 26.7 µM
same,AC50,[9],active: 46.1 µM
same,AC50,[10],active: 13.8 µM

# A second format for some results above:
compound | measurement | setting | value
[Cl][Hg][c]1ccccc1 | AC50 | [10] | active: 0.672 µM
C=CC(=O)OCCCCO | AC50 | [2] | inconclusive: 25 µM
N#Cc1sc2c(=O)c3ccccc3c(=O)c=2sc1C#N | AC50 | [12] | active: 10.3 µM
N#CC(C#N)=NNc1cccc(Cl)c1 | AC50 | [8] | active: 26.7 µM
